Source: the supplement of paper PMC11732987, “Enantioselective OTUD7B fragment discovery through chemoproteomics screening and high-throughput optimisation” (Communications Chemistry, 2025)
The other results are listed elsewhere or left out. The data scatter; read single values as rough.

Sequences of proteins named here, by UniProt entry; tags and fusion partners are left off. A change or cut given only in a name is not applied to a line headed by its entry.
UniProt Q8IU81: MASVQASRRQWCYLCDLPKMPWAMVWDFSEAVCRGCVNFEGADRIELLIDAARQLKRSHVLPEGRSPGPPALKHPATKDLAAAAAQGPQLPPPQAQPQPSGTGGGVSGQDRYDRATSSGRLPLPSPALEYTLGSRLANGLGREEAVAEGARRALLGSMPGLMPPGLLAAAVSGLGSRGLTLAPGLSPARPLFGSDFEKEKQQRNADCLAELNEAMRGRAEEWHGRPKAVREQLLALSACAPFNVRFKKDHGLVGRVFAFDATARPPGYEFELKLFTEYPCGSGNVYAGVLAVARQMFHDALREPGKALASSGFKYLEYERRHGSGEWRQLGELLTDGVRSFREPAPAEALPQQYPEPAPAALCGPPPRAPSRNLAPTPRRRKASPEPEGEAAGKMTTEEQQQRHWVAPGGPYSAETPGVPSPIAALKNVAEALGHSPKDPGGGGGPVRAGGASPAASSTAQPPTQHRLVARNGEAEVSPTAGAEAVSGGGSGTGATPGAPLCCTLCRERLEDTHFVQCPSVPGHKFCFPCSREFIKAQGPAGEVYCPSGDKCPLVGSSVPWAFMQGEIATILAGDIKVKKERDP
UniProt P48735: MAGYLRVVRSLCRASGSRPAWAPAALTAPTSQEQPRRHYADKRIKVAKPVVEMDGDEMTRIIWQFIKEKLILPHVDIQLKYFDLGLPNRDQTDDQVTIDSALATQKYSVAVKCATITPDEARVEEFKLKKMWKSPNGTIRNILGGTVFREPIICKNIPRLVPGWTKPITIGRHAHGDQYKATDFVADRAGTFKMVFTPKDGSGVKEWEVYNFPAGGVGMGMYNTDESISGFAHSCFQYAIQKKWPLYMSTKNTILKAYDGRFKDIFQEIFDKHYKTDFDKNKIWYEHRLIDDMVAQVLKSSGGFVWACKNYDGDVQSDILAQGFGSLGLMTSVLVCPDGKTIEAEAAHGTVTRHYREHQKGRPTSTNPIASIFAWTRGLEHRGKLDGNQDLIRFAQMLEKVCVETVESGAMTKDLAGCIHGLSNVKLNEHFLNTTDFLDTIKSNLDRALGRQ
UniProt Q8NBQ5: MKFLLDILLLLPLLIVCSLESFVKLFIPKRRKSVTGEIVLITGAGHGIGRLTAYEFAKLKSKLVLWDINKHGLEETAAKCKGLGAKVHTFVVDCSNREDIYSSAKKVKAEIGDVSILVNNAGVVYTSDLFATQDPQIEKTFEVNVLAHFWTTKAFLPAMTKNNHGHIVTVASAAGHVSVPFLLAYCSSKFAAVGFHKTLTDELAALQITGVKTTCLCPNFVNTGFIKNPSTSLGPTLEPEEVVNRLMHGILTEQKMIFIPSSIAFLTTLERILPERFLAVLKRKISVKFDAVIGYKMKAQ
UniProt Q9H0C8: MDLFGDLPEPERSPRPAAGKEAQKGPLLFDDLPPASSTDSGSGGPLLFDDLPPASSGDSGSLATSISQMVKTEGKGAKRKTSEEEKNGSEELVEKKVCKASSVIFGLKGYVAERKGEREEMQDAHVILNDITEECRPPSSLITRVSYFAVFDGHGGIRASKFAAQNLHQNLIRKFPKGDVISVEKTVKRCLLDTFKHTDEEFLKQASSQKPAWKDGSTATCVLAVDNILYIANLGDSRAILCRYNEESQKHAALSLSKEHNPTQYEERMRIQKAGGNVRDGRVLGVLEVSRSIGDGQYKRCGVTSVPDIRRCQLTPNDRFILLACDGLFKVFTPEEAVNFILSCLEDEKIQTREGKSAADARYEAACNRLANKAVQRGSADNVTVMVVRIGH
UniProt Q9Y6K9, whole entry, looked up: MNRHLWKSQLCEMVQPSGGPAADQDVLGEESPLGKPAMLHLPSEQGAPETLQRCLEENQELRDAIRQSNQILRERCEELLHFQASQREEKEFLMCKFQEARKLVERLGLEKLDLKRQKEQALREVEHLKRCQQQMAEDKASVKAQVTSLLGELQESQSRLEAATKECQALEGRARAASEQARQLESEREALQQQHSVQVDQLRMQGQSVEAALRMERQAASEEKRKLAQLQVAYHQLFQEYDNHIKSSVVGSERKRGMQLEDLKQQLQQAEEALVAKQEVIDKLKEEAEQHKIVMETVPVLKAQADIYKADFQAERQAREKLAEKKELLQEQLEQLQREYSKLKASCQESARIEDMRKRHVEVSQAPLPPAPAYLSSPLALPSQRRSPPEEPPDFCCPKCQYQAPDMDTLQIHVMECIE
UniProt P11717: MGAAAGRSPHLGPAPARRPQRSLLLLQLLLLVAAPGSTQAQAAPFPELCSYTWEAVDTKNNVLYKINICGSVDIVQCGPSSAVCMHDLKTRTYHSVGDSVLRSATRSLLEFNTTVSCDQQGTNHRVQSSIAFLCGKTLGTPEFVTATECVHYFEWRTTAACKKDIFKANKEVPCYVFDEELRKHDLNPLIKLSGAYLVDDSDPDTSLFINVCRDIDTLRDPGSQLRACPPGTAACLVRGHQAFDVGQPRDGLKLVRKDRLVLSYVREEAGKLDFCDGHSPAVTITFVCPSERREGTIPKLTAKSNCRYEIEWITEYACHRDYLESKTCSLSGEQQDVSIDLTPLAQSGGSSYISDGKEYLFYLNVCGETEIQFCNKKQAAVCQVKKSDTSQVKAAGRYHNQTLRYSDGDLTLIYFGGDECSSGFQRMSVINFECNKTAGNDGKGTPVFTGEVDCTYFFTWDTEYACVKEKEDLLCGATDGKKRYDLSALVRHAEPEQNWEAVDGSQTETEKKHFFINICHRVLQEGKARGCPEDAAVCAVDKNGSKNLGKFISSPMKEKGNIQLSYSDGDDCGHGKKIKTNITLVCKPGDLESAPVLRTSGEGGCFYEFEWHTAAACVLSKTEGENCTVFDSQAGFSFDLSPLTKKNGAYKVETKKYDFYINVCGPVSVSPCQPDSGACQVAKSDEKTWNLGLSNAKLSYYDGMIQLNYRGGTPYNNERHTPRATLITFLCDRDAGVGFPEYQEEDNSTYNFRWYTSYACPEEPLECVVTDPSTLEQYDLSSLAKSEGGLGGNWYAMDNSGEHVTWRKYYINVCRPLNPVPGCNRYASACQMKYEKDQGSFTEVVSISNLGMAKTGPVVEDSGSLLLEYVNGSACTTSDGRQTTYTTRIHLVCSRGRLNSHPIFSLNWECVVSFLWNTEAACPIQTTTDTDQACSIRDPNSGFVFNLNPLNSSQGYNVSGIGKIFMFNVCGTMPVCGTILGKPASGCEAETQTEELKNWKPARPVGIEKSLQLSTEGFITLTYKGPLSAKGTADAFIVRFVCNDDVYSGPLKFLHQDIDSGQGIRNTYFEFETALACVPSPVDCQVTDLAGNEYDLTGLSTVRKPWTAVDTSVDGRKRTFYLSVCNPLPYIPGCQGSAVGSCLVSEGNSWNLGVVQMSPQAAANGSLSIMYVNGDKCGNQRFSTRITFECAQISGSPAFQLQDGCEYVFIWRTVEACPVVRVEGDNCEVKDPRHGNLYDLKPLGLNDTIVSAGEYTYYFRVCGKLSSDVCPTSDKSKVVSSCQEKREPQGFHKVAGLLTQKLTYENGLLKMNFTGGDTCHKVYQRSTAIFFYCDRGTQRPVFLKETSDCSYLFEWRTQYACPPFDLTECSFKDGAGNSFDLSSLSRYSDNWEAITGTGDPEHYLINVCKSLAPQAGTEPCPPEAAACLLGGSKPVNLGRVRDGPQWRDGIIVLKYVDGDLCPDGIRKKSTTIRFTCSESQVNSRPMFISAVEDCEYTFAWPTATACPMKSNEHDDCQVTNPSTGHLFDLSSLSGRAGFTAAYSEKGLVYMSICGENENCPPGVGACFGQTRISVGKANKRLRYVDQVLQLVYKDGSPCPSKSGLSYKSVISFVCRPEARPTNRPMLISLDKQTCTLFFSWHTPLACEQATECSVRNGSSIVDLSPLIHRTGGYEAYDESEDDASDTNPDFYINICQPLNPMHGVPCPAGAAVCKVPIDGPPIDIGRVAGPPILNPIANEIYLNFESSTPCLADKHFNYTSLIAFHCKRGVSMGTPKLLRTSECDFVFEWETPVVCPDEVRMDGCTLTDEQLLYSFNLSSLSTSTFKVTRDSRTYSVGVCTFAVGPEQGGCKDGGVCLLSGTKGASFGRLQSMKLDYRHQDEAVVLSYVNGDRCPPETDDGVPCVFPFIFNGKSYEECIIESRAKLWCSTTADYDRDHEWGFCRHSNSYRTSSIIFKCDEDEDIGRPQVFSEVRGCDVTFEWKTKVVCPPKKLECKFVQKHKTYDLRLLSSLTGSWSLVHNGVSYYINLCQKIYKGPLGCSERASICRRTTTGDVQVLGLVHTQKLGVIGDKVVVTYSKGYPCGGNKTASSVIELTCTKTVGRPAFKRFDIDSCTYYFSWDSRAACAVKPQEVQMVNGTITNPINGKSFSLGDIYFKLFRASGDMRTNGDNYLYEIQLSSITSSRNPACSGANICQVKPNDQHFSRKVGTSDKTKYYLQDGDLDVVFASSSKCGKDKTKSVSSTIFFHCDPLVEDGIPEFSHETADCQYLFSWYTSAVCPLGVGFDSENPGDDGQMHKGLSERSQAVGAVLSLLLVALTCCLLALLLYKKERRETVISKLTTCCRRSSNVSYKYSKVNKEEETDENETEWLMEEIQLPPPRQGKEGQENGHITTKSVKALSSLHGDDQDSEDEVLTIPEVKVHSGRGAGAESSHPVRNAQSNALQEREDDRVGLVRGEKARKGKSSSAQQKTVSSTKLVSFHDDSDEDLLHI
UniProt P38935: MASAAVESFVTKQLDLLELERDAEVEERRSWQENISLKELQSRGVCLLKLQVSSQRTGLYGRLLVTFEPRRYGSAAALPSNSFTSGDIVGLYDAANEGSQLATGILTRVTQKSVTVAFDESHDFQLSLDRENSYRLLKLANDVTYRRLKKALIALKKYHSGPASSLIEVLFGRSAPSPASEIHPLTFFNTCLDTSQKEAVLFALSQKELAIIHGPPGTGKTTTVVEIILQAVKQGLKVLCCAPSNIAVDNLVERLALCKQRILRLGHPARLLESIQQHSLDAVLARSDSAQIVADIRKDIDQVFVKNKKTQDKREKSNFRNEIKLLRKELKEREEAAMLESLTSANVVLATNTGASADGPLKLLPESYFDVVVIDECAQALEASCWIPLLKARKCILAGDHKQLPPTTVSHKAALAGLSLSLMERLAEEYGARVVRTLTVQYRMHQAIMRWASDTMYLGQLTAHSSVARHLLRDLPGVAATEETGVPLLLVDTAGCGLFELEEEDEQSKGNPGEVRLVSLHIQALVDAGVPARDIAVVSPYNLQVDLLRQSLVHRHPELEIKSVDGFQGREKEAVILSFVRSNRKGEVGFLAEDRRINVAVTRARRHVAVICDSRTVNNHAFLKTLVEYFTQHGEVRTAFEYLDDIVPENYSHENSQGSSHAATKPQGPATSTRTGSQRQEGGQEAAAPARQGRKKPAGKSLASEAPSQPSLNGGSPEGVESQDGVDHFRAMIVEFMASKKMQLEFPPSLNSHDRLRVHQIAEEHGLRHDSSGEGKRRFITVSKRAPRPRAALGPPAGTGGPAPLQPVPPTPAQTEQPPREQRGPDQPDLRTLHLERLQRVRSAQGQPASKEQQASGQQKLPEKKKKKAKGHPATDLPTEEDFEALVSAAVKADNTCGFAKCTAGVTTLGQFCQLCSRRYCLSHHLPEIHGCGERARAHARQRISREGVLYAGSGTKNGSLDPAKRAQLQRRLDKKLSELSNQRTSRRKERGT
UniProt O43719: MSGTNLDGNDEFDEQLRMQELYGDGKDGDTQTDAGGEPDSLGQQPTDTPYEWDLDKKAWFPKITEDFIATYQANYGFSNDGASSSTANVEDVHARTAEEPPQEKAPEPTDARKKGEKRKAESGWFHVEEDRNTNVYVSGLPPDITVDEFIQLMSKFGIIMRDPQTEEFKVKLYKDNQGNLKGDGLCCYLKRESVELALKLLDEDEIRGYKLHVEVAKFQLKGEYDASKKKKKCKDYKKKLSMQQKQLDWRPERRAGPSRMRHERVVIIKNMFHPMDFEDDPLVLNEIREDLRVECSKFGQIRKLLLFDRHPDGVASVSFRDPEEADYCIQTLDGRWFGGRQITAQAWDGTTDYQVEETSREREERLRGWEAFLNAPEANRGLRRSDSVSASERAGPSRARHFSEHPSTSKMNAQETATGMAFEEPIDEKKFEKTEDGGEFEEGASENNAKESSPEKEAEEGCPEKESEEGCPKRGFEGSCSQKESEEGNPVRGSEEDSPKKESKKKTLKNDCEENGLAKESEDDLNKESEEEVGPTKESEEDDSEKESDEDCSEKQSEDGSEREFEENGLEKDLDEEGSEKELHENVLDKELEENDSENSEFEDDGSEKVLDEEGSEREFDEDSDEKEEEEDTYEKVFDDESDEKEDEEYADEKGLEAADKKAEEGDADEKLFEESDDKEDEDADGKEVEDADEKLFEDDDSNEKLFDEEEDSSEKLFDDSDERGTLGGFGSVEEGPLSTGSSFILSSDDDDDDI

The targets below were run with ClCC(=O)N[C@H]1CCCc2ccccc12 (assay: log2 mean competition ratio of IA-DTB cysteine labelling (DMSO/compound) (log2 ratio); higher = stronger cysteine engagement by compound). Conditions: 200 µM; treatment time: 4 h; cell line lysate: HEK293T.
Experimental: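 IA-DTB competitive cysteine chemoproteomics in HEK293T RIPA lysate. Lysates were treated with compound 29 or 30 at 50 or 200 µM for 4 h, then IA-DTB (500 µM, 1 h), trypsin-digested, NeutrAvidin-enriched and analysed by diaPASEF. Competition ratio = intensity DMSO / intensity compound (n=4 treated, n=64 DMSO); binding: mean log2 CR ≥ 1 and p ≤ 0.05 plus QC filters. Target is the cysteine site.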

Target | log2 mean competition ratio
HSPH1 C245 | -0.195
IRF2BP1 C546 (UniProt Q8IU81) | -0.216
HSPA9 C366 (UniProt P38646) | -0.112
IDH2 C402 (UniProt P48735) | -0.187
HSD17B11 C94 (UniProt Q8NBQ5) | 0.159
ILKAP C190 (UniProt Q9H0C8) | 0.035
IKBKG C167 (UniProt Q9Y6K9) | 0.222
IGF2R C1042 (UniProt P11717) | 0.107
IQCC C248 | 0.19
IGHMBP2 C897 (UniProt P38935) | 0.00909
HTATSF1 C480 (UniProt O43719) | 0.0806
HUWE1 C467 | 0.189
IFT80 C106 (UniProt Q9P2H3) | -0.134
IKBKG C131 (UniProt Q9Y6K9) | 0.00631

A few values from the list.
HTATSF1 C480 (UniProt O43719) | log2 mean competition ratio: 0.0806
IRF2BP1 C546 (UniProt Q8IU81) | log2 mean competition ratio: -0.216
